# The supplement of paper PMC11348887
# This is one part of the list. Most values lie at the level of the controls, where differences are scatter.
# How the values were obtained:
# Details in all cases: 5 µM; treatment: days 7-14 after plating, readout day 21
# [1] = tested on: hPSC-derived cortical neurons (WA09); test: nucleus area z-score vs screen plate; higher = larger nuclei (more mature)
# [2] = tested on: hPSC-derived cortical neurons (WA09); test: total neurite length per nucleus (MAP2) z-score; higher = more neurite growth
# [3] = tested on: hPSC-derived cortical neurons (WA09); test: nucleus roundness z-score vs screen plate; higher = rounder nuclei (more mature)
# [4] = tested on: hPSC-derived cortical neurons (WA09); test: KCl-induced FOS+/EGR-1+ double-positive nuclei fraction z-score (KCl minus unstimulated); higher = stronger activity-induced IEG response
Compound,nucleus area z-score [1],total neurite length per nucleus (z-score) [2],nucleus roundness z-score [3],KCl-induced FOS+/EGR-1+ double-positive nuclei fraction z-score [4]
Oc1cc(O)c(Cl)cn1 [Gimeracil],1.13,-1.54,-1.77,-0.368
CC(C)c1cnn2c(NCc3ccccc3)cc(NCCCCCCN)nc12,-4.08,-0.362,-0.497,-1.2
COc1c2occc2cc2ccc(=O)oc12 [Methoxsalen],-0.388,0.513,-1.7,-0.333
COc1cc(-c2ncn(/C=C\C(=O)OC(C)C)n2)cc(C(F)(F)F)c1,-5.99,-0.54,-3.06,0.0442
C[C@@]12C[C@@]3(O)O[C@@H](O1)[C@]1(COC(=O)c4ccccc4)[C@H]3C[C@@]12O[C@@H]1O[C@H](CO)[C@@H](O)[C@H](O)[C@H]1O [Paeoniflorin],0.0147,-0.977,-1.27,0.197
CC(C)Oc1ccc(C(=O)N[C@H](CNC(=O)CN(C)C)Cc2ccc(-c3cn4cccc([C@H](C)O)c4n3)cc2)cc1Cl,-0.327,0.324,0.492,-1.02
NC(=O)c1cnc(N[C@@H]2CCCC[C@@H]2N)nc1Nc1cccc(-n2nccn2)c1,0.215,0.408,0.345,0.274
COc1ccc(Cl)c(Nc2nc3ccccc3nc2NS(=O)(=O)c2cccc(NC(=O)C(C)(C)N)c2)c1 [Pilaralisib (XL147)],-0.171,0.0939,0.817,0.549
NCCS(=O)(=O)O [Taurine],0.215,0.639,0.309,-0.0515
CO[C@H]1/C=C/O[C@@]2(C)Oc3c(C)c(O)c4c(O)c(c5c(nc6cc(C)ccn65)c4c3C2=O)NC(=O)/C(C)=C\C=C\[C@H](C)[C@H](O)[C@@H](C)[C@@H](O)[C@@H](C)[C@H](OC(C)=O)[C@@H]1C [Rifaximin],0.476,-0.0711,-0.181,0.662
CC/C(=C(\c1ccc(O)cc1)c1ccc(OCCN(C)C)cc1)c1ccccc1 [4-Hydroxytamoxifen],-2.57,-2.44,-2.2,-0.905
Nc1c2ccccc2nc2ccccc12 [9-Aminoacridine],1.48,0.118,-0.567,-0.0783
CCOc1ccc(NC(C)=O)cc1 [Phenacetin],-0.0649,0.0298,0.0166,2.05
Nc1nc(Cl)nc2c1ncn2[C@H]1C[C@H](O)[C@@H](CO)O1 [Cladribine],-6.83,-2.23,-1.48,-0.973
COc1ccc2[nH]cc(/C=C3\C(=O)Nc4ccc(NC(=O)CCN5CCCCC5)cc43)c2c1,-0.782,-0.00394,-0.359,-0.393
CNS(=O)(=O)C[C@H]1CC[C@H](N(C)c2[nH]cnc3nccc2-3)CC1 [Oclacitinib],0.0619,-0.451,0.952,-0.228
O=C(CCCCCN1C(=O)c2cccc3cccc(c23)C1=O)NO [Scriptaid],-5.18,-1.32,-3.88,0.312
O=C(NS(=O)(=O)c1ccc(Br)s1)c1ccc(Cl)cc1Cl [Tasisulam],1.44,-0.319,-0.498,0.123
C[C@H]1COC2=C1C(=O)C(=O)c1c2ccc2c1CCCC2(C)C [Cryptotanshinone],2.12,-1.12,-0.854,-0.154
Cn1cc(-c2ccc3ncc(Cc4ccc5ncccc5c4)n3n2)cn1,0.524,-0.514,-0.877,-0.184
CN(C)CCCCC(=O)Nc1ccc(NC(=S)NC(=O)c2ccc(C(C)(C)C)cc2)cc1 [Tenovin-6],-0.744,-0.888,-2.37,-1.38
CC(C)(C)C#Cc1cc(N(C(=O)[C@H]2CC[C@H](C)CC2)[C@H]2CC[C@H](O)CC2)c(C(=O)O)s1 [VX-222 (VCH-222_ Lomibuvir)],-0.34,0.259,-0.618,0.283
O=C(O)C(S)=Cc1c[nH]c2ccc(F)cc12,2.93,-0.721,-0.497,0.739
CCn1c2ccccc2c2cc(CNCc3ccccc3OC)ccc21,-1.23,-0.494,-0.701,1.36
CCOc1cc2ncc(C#N)c(Nc3ccc(OCc4ccccn4)c(Cl)c3)c2cc1NC(=O)/C=C/CN(C)C [Neratinib (HKI-272)],-8.66,-2.71,-5.62,-1.23
COc1ccccc1N1CCN(CC(O)COc2cccc3ccccc23)CC1 (stereo not drawn) [Naftopidil DiHCl],-4,-1.7,-0.654,-0.142
CC(C)(O/N=C(\C(=O)N[C@@H]1C(=O)N2C(C(=O)[O-])=C(C[n+]3ccccc3)CS[C@H]12)c1csc(N)n1)C(=O)O [Ceftazidime Pentahydrate],0.767,0.364,0.398,1.48
